Data reported in the supplement of paper PMC9015667.
Counter-ions that a name gives are not always drawn. The list shows a part of the results. Repeats are few or missing, and single values can be far off.

Experiments:
Assay in all cases: reduction in cell viability relative to untreated/vehicle; higher = more growth inhibition
Conditions in all cases: 200 nM; 72 h
M229P = test system: M229P (parental melanoma line)
M229R = test system: M229R (matched melanoma line resistant to BRAF inhibitors)
M238P = test system: M238P (parental melanoma line)
M238R = test system: M238R (matched melanoma line resistant to BRAF inhibitors)
M249P = test system: M249P (parental melanoma line)
M249R = test system: M249R (matched melanoma line resistant to BRAF inhibitors)
UACC62P = test system: UACC62P (parental melanoma line)
UACC62R = test system: UACC62R (matched melanoma line resistant to BRAF inhibitors)

Measured: reduction in cell viability

C=CC(=O)Nc1cccc(Oc2nc(Nc3ccc(N4CCN(C)CC4)cc3)ncc2Cl)c1
22.2%: UACC62P
10.9%: M238P
9.44%: UACC62R
< 0%: all other assays above

O=C1c2c(O)cc(O)cc2O[C@H](c2cc(O)c(O)c(O)c2)[C@H]1O [Dihydromyricetin]
< 0%: all assays above

CN(C)CC/C=C1/c2ccccc2COc2ccc(CC(=O)O)cc21 [Olopatadine hydrochloride]
8.25%: M229P
< 0%: all other assays above

COc1nccc(-c2c(-c3ccc(F)cc3)ncn2C2CCC(O)CC2)n1 (centres undefined)
< 0%: all assays above

COc1cccc2nc(-c3cccs3)nc(NN3C(=O)C=C(C)C3=O)c12
4.44%: M249P
23.3%: M229P
< 0%: M238R | UACC62R
30.1%: M238P
10.1%: M249R
11.7%: UACC62P
24.8%: M229R

NC(=O)Nc1cc(-c2cccc(F)c2)sc1C(=O)N[C@H]1CCCNC1
23%: M249P
44.2%: M238R
36.9%: UACC62P
87.2%: M229R
76%: UACC62R
69.1%: M238P
42.5%: M249R
45.7%: M229P

CC(C)C[C@@H](N)[C@H](O)C(=O)N[C@H](C(=O)N[C@H](C(=O)N[C@@H](CC(=O)O)C(=O)O)C(C)C)C(C)C [Amastatin]
< 0%: all assays above

CC(=O)OCC(CCn1cnc2cnc(N)nc21)COC(C)=O [Famciclovir]
< 0%: all assays above

Nc1ccn([C@@H]2O[C@H](CO)[C@@H](O)[C@H]2O)c(=O)n1 [Cytidine]
4.06%: M229P
0.79%: M229R
< 0%: all other assays above

CC(=O)Nc1ccc(O)cc1 [Acetaminophen]
8.56%: UACC62P
< 0%: all other assays above

CC(C)C[C@H](NC(=O)CNC(=O)c1cc(Cl)ccc1Cl)B1OC(=O)C(CC(=O)O)(CC(=O)O)O1 [Ixazomib citrate]
81.1%: M229R
77.4%: M238P
79.1%: M229P
83.1%: M238R
75.9%: M249P
78.5%: UACC62P
79.5%: M249R
77.2%: UACC62R

C[C@]12C=CC(=O)N[C@@H]1CC[C@@H]1[C@@H]2CC[C@]2(C)[C@@H](C(=O)Nc3cc(C(F)(F)F)ccc3C(F)(F)F)CC[C@@H]12 [Dutasteride]
not listed: UACC62P
< 0%: all other assays above

C[C@@H](Oc1cc(-n2cnc3ccc(CN4CCN(C)CC4)cc32)sc1C(N)=O)c1ccccc1C(F)(F)F
5.34%: M229R
21.9%: UACC62P
45%: M238P
80.6%: UACC62R
6.43%: M229P
5.89%: M249R
44.1%: M238R
< 0%: M249P

CSc1cccc(Nc2ncc3cc(-c4c(Cl)cccc4Cl)c(=O)n(C)c3n2)c1
14.1%: UACC62R
2.92%: M238R
23.5%: M238P
5.72%: UACC62P
4.13%: M229R
< 0%: all other assays above

O=C(Nc1cc(C(F)(F)F)cc(C(F)(F)F)c1)c1cc(Cl)ccc1O
27.4%: M238P
1.42%: M249R
< 0%: M229P | M238R
26.8%: UACC62P
36.1%: UACC62R
14.6%: M249P
14.3%: M229R

COc1ccc(C[C@@H](C)[C@@H](C)Cc2ccc(OC)c(OC)c2)cc1OC [Terameprocol]
8.48%: UACC62P
16%: M249R
< 0%: all other assays above

CCCC[C@@H](C=O)NC(=O)[C@H](CC(C)C)NC(=O)OCc1ccccc1 [Calpeptin]
not listed: M229R | UACC62P
< 0%: all other assays above

CC(C)OC(=O)CCC/C=C\C[C@@H]1[C@@H](/C=C/[C@@H](O)COc2cccc(C(F)(F)F)c2)[C@H](O)C[C@@H]1O [Travoprost]
< 0%: all assays above

N#Cc1ccc(C(c2ccc(C#N)cc2)n2cncn2)cc1 [Letrozole]
< 0%: all assays above

CC1=C(/C=C/C(C)=C/C=C/C(C)=C/C(=O)O)C(C)(C)CCC1 [Tretinoin]
< 0%: all assays above

Cc1c(-c2cccc3c(CCCOc4cccc5ccccc45)c(C(=O)O)n(Cc4cccnc4)c23)c(COc2ccc(N3CCN([S+](=O)([O-])N(C)C)CC3)cc2)nn1C
< 0%: all assays above

Cc1cc(SCc2sc(-c3ccc(C(F)(F)F)cc3)nc2C)ccc1OCC(=O)O
< 0%: all assays above

Cn1c(=O)c2c(ncn2C)n(C)c1=O [Caffeine, citrated]
3.83%: UACC62P
< 0%: all other assays above

NS(=O)(=O)c1cc2c(cc1Cl)N=CNS2(=O)=O [Chlorothiazide]
< 0%: all assays above

CC(C)(C)NCC(O)c1ccc(O)c(CO)c1 (centres undefined) [Albuterol]
< 0%: all assays above

COc1ccc2c(c1)CCC1C2CCC2(C)C(NCCCCCCN3C(=O)C=CC3=O)CCC12 (centres undefined)
< 0%: all assays above

NCCCCCC(=O)O [Aminocaproic acid]
< 0%: all assays above

COc1c2occc2cc2ccc(=O)oc12 [Methoxsalen]
1.35%: UACC62P
< 0%: all other assays above

CNC(=O)c1ccccc1Nc1nc(Nc2ccc(N3CCOCC3)cc2OC)ncc1Cl
3.32%: UACC62R
26.7%: M229R
17.9%: M238P
0.14%: M229P
< 0%: all other assays above

Nc1nccc(Oc2ccc(NC(=O)c3c[nH]cc(-c4ccc(F)cc4)c3=O)cc2F)c1Cl
< 0%: all assays above

O=C(CCN1CCN(C(=O)OCc2cc(Cl)cc(Cl)c2)CC1)c1ccc2[nH]c(=O)oc2c1
< 0%: all assays above

CC(=O)c1c(C)c2cnc(Nc3ccc(N4CCNCC4)cn3)nc2n(C2CCCC2)c1=O
< 0%: all assays above

N[C@@H](Cc1c[nH]c2ccc(O)cc12)C(=O)O [5-Hydroxytryptophan]
< 0%: all assays above

CC1(C)OC2=C(C(=O)c3ccccc3C2=O)[C@H](NCc2ccccc2)[C@@H]1O
0.43%: M229P
0.91%: UACC62P
< 0%: all other assays above
